From PMC6960199
Results are given in words; binding and its absence hold for the method and conditions named. In cells and extracts the contact can be indirect. Some binding calls cover weakened binding; strength is not graded here.

Protein sequences, listed by entry. Tags and fused reporters are not part of them.
UniProt O88427: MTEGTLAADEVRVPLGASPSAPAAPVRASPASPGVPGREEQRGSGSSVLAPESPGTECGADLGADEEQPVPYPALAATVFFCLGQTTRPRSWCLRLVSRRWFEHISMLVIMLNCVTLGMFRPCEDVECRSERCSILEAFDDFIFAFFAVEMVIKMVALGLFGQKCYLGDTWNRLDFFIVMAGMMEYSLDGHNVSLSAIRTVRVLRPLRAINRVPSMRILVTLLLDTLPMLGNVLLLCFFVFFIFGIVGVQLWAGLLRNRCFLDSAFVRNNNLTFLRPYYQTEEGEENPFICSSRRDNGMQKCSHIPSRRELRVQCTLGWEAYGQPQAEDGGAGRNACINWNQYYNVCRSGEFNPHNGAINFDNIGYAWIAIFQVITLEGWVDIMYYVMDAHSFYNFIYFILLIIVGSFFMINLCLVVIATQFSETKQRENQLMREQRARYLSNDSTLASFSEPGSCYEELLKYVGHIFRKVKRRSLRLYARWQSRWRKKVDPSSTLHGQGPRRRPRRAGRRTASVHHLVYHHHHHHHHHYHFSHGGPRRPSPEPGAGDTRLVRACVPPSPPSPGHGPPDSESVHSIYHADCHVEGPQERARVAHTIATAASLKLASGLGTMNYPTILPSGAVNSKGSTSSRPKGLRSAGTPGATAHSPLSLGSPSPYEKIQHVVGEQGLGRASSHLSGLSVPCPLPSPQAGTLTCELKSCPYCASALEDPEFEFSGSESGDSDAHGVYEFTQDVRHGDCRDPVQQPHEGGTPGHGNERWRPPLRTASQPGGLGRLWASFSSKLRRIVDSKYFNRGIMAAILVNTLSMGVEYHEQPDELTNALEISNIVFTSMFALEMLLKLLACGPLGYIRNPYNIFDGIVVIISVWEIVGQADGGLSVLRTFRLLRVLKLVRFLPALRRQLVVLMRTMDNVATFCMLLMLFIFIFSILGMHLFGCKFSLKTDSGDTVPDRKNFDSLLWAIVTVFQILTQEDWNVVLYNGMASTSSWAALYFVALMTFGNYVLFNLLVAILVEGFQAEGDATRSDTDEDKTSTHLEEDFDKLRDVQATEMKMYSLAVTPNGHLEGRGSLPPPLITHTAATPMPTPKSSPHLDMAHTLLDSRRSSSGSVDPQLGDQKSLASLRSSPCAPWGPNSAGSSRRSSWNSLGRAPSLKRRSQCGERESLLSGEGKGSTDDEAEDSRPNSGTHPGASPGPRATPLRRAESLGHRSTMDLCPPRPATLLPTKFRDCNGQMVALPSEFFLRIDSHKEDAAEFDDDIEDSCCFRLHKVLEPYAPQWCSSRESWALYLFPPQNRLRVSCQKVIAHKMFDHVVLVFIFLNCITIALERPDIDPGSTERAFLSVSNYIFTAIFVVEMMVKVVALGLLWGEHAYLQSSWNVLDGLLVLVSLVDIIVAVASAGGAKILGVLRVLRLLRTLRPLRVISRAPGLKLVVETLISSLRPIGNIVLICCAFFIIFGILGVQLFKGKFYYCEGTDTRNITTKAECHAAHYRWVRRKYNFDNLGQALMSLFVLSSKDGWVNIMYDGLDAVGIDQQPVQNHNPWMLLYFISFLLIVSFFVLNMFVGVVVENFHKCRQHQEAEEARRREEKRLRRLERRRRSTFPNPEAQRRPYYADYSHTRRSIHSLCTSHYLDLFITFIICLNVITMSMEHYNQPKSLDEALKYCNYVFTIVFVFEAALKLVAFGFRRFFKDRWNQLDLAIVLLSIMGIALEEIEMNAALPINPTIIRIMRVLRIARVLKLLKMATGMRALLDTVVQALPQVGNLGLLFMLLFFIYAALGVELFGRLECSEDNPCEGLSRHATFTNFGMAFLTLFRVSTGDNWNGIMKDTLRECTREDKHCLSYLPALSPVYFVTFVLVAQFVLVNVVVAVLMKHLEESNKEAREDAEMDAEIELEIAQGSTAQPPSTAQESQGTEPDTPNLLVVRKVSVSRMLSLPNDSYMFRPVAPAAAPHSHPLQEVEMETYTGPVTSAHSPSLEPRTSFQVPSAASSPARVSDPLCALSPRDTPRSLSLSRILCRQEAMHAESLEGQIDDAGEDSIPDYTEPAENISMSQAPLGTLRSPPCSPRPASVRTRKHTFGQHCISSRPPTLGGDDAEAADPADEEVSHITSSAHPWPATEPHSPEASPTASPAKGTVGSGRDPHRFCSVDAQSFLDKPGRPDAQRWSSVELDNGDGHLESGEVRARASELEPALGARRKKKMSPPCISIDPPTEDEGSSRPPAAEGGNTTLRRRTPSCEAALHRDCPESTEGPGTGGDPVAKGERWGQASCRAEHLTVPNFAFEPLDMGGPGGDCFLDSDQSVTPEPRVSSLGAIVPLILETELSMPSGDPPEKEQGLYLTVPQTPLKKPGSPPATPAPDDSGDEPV

Experiments:
[1] = target: T1, Kelch-like 1 (KLHL1) (mouse (endogenous in DRG)) (UniProt Q9JI74); test: co-IP; crude membrane preparations of mouse DRG; primary antibodies against CaV3.2 (1:40) or KLHL1 (1:40), or IgG as negative control, 1-3 h at 4°C, then protein A/G agarose beads overnight at 4°C; western blot
T1 sequence: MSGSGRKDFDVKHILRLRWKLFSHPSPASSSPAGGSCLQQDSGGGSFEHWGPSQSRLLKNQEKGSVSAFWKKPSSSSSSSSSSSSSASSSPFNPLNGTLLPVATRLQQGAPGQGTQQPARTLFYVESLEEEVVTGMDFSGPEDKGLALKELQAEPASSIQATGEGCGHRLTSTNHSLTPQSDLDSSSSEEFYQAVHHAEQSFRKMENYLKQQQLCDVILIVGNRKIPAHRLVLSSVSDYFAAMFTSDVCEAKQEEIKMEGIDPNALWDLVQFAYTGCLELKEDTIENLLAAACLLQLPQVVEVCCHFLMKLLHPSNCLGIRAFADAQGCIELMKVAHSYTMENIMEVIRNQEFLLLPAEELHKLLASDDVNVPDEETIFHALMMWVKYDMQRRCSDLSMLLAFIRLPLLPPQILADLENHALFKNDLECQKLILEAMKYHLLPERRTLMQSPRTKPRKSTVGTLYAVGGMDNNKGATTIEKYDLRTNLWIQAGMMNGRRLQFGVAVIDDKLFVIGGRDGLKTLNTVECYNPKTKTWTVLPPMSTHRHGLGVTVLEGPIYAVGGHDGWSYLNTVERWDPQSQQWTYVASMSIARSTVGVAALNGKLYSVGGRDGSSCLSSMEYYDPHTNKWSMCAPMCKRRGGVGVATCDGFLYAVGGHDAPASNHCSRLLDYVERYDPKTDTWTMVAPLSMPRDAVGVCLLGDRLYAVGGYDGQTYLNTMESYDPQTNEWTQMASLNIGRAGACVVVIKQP

[2] = target: CaV3.2 T-type calcium channel (mouse (endogenous in DRG)) (UniProt O88427); test: as above

Which binding [1] does the source give for “CaV3.2 T-type calcium channel (from UniProt O88427 1-2365)” here?
The binding was “binds”.

B1: Kelch-like 1 (KLHL1) (protein, UniProt Q9JI74 1-751)
chain: MSGSGRKDFDVKHILRLRWKLFSHPSPASSSPAGGSCLQQDSGGGSFEHWGPSQSRLLKNQEKGSVSAFWKKPSSSSSSSSSSSSSASSSPFNPLNGTLLPVATRLQQGAPGQGTQQPARTLFYVESLEEEVVTGMDFSGPEDKGLALKELQAEPASSIQATGEGCGHRLTSTNHSLTPQSDLDSSSSEEFYQAVHHAEQSFRKMENYLKQQQLCDVILIVGNRKIPAHRLVLSSVSDYFAAMFTSDVCEAKQEEIKMEGIDPNALWDLVQFAYTGCLELKEDTIENLLAAACLLQLPQVVEVCCHFLMKLLHPSNCLGIRAFADAQGCIELMKVAHSYTMENIMEVIRNQEFLLLPAEELHKLLASDDVNVPDEETIFHALMMWVKYDMQRRCSDLSMLLAFIRLPLLPPQILADLENHALFKNDLECQKLILEAMKYHLLPERRTLMQSPRTKPRKSTVGTLYAVGGMDNNKGATTIEKYDLRTNLWIQAGMMNGRRLQFGVAVIDDKLFVIGGRDGLKTLNTVECYNPKTKTWTVLPPMSTHRHGLGVTVLEGPIYAVGGHDGWSYLNTVERWDPQSQQWTYVASMSIARSTVGVAALNGKLYSVGGRDGSSCLSSMEYYDPHTNKWSMCAPMCKRRGGVGVATCDGFLYAVGGHDAPASNHCSRLLDYVERYDPKTDTWTMVAPLSMPRDAVGVCLLGDRLYAVGGYDGQTYLNTMESYDPQTNEWTQMASLNIGRAGACVVVIKQP
For B1, which binding [2] is on record?
The binding was “binds”.
